Experimental data reported in PubChem BioAssay AID1671190 (National Center for Advancing Translational Sciences (NCATS), 2021).
The campaign covered roughly 580,000 compounds. About 6,100 (1.1%) were called active. Entries that show only a call come without a potency. This list was built around the results that the source calls inconclusive (neither active nor inactive); the mix of calls is not that of the screen. Calls come from the whole dose curve; as a rule, active = well fitted inhibition curve with a large enough effect; inconclusive = small, poorly fitted or top-dose-only effect, or another doubt; inactive = no such curve, though single readings can be large or run the other way. Potencies beside an inconclusive call are fits to weak or partial responses and may not hold up.

The chains behind the UniProt entries cited, without tags or fusion partners. Where a name states a change or a piece, a line headed by the entry shows the natural chain unless it says otherwise.
UniProt P18054: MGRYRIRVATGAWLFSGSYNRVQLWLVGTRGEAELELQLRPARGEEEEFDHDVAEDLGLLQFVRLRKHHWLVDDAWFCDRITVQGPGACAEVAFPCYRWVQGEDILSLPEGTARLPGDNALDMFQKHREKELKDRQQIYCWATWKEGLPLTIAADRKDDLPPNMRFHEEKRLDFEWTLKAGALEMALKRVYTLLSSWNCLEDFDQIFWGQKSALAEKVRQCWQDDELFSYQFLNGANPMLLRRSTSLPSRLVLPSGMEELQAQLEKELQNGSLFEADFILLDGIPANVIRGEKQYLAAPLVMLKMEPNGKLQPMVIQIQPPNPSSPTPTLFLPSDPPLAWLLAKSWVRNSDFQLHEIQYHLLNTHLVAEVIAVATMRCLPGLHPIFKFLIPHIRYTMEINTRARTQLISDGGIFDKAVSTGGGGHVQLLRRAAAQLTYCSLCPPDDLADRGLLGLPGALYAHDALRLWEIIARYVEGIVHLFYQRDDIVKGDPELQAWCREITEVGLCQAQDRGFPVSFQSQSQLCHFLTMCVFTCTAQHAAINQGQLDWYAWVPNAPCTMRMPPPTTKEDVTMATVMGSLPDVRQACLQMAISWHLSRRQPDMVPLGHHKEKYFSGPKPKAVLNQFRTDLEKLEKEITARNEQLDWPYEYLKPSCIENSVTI

These compounds were tested against Polyunsaturated fatty acid lipoxygenase ALOX12 (Homo sapiens) (UniProt P18054) (assay: Primary qHTS assay for inhibitors of human arachidonate 12S-lipoxygenase (ALOX12): Round 2). Details: purified 12hLO, xylenol orange hydroperoxide absorbance; series mostly up to 108 µM.
Outline: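 Purified human 12hLO (150 nM final) in 25 mM Hepes, 0.01% Triton X-100, pH 7.0 was preincubated 15 min at room temperature with compound. Then 40 uM arachidonic acid was added, 30 min. Hydroperoxide was read by Fe-XO absorbance ratio 573/405 nm.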
Potency is the fitted concentration of half-maximal effect.

Row | SMILES | Potency
1 | O=C(C1COc2ccccc2O1)N1CCN(c2ccc(F)cc2)CC1 (stereo not given) | inactive
2 | COc1ccccc1C=NN=C(NN=Cc1ccccc1OC)NN=Cc1ccccc1OC | inconclusive: 39.8 µM [inhibitor, partial curve, poor fit]
3 | COc1cccc(CC(NC(C)=O)C(=O)NC2CCN(C(=O)c3ccc(Cl)cc3)CC2)c1 (stereo not given) | inactive
4 | CN(C(=O)CSc1nc(-c2ccccc2)no1)C1CCCCC1 | inactive
5 | O=C1CCc2cc(NS(=O)(=O)c3ccccc3)cc3c2N1CC3 | inactive
6 | Cc1ccc(NC(=O)C2CCN(C(=O)[C@@H]3Cc4ccccc4CN3)CC2)c(C)c1 | inconclusive: 56.2 µM [inhibitor, single point]
7 | CN(Cc1ccccc1)C(=O)c1nc(-c2cccc3[nH]ccc23)no1 | inactive
8 | COc1ccc(C2=NN(c3ccc(C(=O)O)cc3)C(c3ccc(OC)c(OC)c3)C2)cc1 (stereo not given) | inconclusive: 50.1 µM [inhibitor, partial curve, poor fit]
9 | CC(C)C(=O)N1CCC2(CC1)N(c1ccccc1)C(=O)CS2(=O)=O | inactive
10 | COc1cccc(-n2nc(C(=O)Nc3cccc(C(F)(F)F)c3)c3ccccc3c2=O)c1 | inactive
11 | Cc1ccc(NC(=O)C2CCCC2)cc1I | inconclusive: 35.5 µM [inhibitor, single point]
12 | CC(C)NC(=O)C1(C)Cc2c(-c3ccc(C(N)=O)cc3)ccnc2O1 (stereo not given) | inactive
13 | O=C(NCCNC(=O)c1ccccc1Nc1ccccc1)c1ccccc1Nc1ccccc1 | inconclusive: 14.1 µM [inhibitor, full curve, poor fit]
14 | CCN(CC)C(=O)[C@@H]1[C@H](c2cc(OC)c(OC)c(OC)c2)c2cc3c(cc2[C@H](O)[C@H]1CO)OCO3 | inactive
15 | Cc1nc(-c2ccc(F)cc2)sc1CCNC(=O)C1CCCC1 | inactive
16 | CN(C)Cc1c(C(=O)NCCOc2ccc(C(=O)NO)cc2)oc2ccccc12 | inconclusive: 4.32 µM [inhibitor, partial curve, poor fit]
17 | CCN(Cc1ccc(OC)cc1)Cc1cc(=O)oc2ccc(C)cc12 | inconclusive: 35.5 µM [inhibitor, partial curve, poor fit]
18 | CS(=O)(=O)N1Cc2ccccc2CC1C(=O)OCC(=O)Nc1ccc2ccccc2c1 (stereo not given) | inactive
19 | O=[N+]([O-])c1cccc2ccc(/C=C/c3cccc(O)c3)nc12 | inconclusive: 28.2 µM [inhibitor, partial curve, poor fit]
20 | C=CCn1c(CNS(=O)(=O)c2ccc(F)cc2)n[nH]c1=S | inconclusive: 44.7 µM [inhibitor, partial curve, poor fit]

3 entries already listed, sorted by heavy-atom count, falling.
Row | SMILES | Potency
13 | O=C(NCCNC(=O)c1ccccc1Nc1ccccc1)c1ccccc1Nc1ccccc1 | inconclusive: 14.1 µM [inhibitor, full curve, poor fit]
9 | CC(C)C(=O)N1CCC2(CC1)N(c1ccccc1)C(=O)CS2(=O)=O | inactive
20 | C=CCn1c(CNS(=O)(=O)c2ccc(F)cc2)n[nH]c1=S | inconclusive: 44.7 µM [inhibitor, partial curve, poor fit]
